Changes are numbered by the printed parent chain. No constants are given. Whether binding was seen depends on the method and setting. For part of these data: In cells and extracts the contact can be indirect. Some entries that bind do so weakly or less than the wild type. For part of these data: Sequences can lack the tags named with a protein.
Columns and labels:
[1] = target: PIK3R3 (p55γ regulatory subunit of PI3 kinase), two-hybrid bait (human) (UniProt Q92569); assay: two-hybrid; pY-Y2H matrix screen and pairwise retest: pY-reader bait (pBTM116-D9) co-transformed with one of nine human non-receptor tyrosine kinases (pASZ-DM), mated with ~17,000 prey strains; growth on SD5 (-Leu-Trp-Ura-His-Ade), 30°C, 5-7 days; kinase dependency retested with all kinases and empty vectors
[2] = target: T1, SH2D1B, co-IP construct (human) (UniProt O14796); assay: co-IP; luciferase-based co-IP from HEK293 (Flp-In TREX, stably ABL2, with or without doxycycline induction): protein A-tagged protein precipitated on IgG-coated plates, firefly-V5-tagged partner read by luminescence; lysis buffer H with phosphatase inhibitor, 4°C; triplicate transfections; positive at ratio > 2 and Z-score > 2
T1 sequence: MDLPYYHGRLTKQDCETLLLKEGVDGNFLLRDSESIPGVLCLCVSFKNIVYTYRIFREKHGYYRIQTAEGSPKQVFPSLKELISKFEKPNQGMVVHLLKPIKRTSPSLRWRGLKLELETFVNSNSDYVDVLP

[3] = target: GST-PIK3R3 (FL, aa 1-461) (human) (UniProt Q92569); assay: pull-down; GST fusion (GRB2(SH2) or PIK3R3 FL) from E. coli on glutathione agarose, incubated 2 h with lysate of cells expressing tagged TSPAN2 (ABL2 induced 24 h or H2O2 15 min); lysis buffer H (50 mM Hepes pH 7.4, 150 mM NaCl, 1% Triton X-100); immunoblot; in Fig 4B with and without phosphatase treatment of the lysate; only the target purified
[4] = target: YFP-F2-PIK3R3 (human) (UniProt Q92569); assay: split reporter; YFP-based protein complementation assay (Venus F1 aa 1-158, F2 aa 159-239) in transfected HEK293 cells, fixed 24 h after transfection, confocal microscopy
[5] = target: T2, SH2D1B, two-hybrid bait (human) (UniProt O14796); assay: two-hybrid; pY-Y2H matrix screen and pairwise retest: pY-reader bait (pBTM116-D9) co-transformed with one of nine human non-receptor tyrosine kinases (pASZ-DM), mated with ~17,000 prey strains; growth on SD5 (-Leu-Trp-Ura-His-Ade), 30°C, 5-7 days; kinase dependency retested with all kinases and empty vectors
T2 sequence: T1 sequence

B1: TSPAN2 (tetraspanin 2), two-hybrid prey (protein, UniProt O60636-1 1-221)
chain: MGRFRGGLRCIKYLLLGFNLLFWLAGSAVIAFGLWFRFGGAIKELSSEDKSPEYFYVGLYVLVGAGALMMAVGFFGCCGAMRESQCVLGSFFTCLLVIFAAEVTTGVFAFIGKGVAIRHVQTMYEEAYNDYLKDRGKGNGTLITFHSTFQCCGKESSEQVQPTCPKELLGHKNCIDEIETIISVKLQLIGIVGIGIAGLTIFGMIFSMVLCCAIRNSRDVI
Q: How did the binding [1] turn out when B1 was run?
A: binds

B2: OLIG1, co-IP construct (protein, UniProt Q8TAK6 1-271)
chain: MYYAVSQARVNAVPGTMLRPQRPGDLQLGASLYELVGYRQPPSSSSSSTSSTSSTSSSSTTAPLLPKAAREKPEAPAEPPGPGPGSGAHPGGSARPDAKEEQQQQLRRKINSRERKRMQDLNLAMDALREVILPYSAAHCQGAPGRKLSKIATLLLARNYILLLGSSLQELRRALGEGAGPAAPRLLLAGLPLLAAAPGSVLLAPGAVGPPDALRPAKYLSLALDEPPCGQFALPGGGAGGPGLCTCAVCKFPHLVPASLGLAAVQAQFSK
Q: B2 was tested. Which binding [2] did it give?
A: binds

B3: PA-TSPAN2 wild type (protein, UniProt O60636-1 1-221)
chain: B1 chain
Q: For B3, which binding [3] is on record?
A: binds

B4: PA-TSPAN2-124Y (all tyrosines but Y124 mutated to phenylalanine) (protein, UniProt O60636-1 1-221)
chain: B1 chain with Y13F, Y54F, Y56F, Y60F, Y128F, Y131F
Q: For B4, which binding [3] is on record?
A: binds

B5: YFP-F1-TSPAN2 (protein, UniProt O60636-1 1-221)
chain: B1 chain
Q: For B5, which binding [4] is on record?
A: binds

B6: OLIG1, two-hybrid prey (protein, UniProt Q8TAK6 1-271)
chain: B2 chain
Q: How did the binding [5] turn out when B6 was run?
A: binds

Source: publication PMC4380928
